These are yes or no findings as the source states them, for the method shown. Binding seen in cells or lysates may run through a third protein. Some results given as binding are weak or reduced against the parent protein; the word gives no strength.
Legend:
[1] = target: high-mobility group box 1 (HMGB1) (human (endogenous in SCC9)) (UniProt P09429); assay: co-IP; endogenous proteins; NP-40 lysate incubated with anti-EPHB4 or anti-HMGB1 or IgG (control) at 4 °C for 2 hours, protein A/G agarose overnight at 4 °C, washed with NP-40 3 times, western blot; cell line not stated
[2] = target: Erythropoietin-producing human hepatocellular B4 (EPHB4) (human (endogenous in SCC9)) (UniProt P54760); assay: as above

Chains of the proteins cited; added tags and fusions are not shown. Residues count along the entry.
UniProt P09429: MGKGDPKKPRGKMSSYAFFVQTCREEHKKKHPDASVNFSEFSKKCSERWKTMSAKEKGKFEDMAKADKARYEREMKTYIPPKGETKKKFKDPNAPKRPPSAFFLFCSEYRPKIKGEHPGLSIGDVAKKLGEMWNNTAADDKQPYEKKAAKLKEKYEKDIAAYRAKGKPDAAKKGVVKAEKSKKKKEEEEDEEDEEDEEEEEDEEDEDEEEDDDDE
UniProt P54760, residues 16-987: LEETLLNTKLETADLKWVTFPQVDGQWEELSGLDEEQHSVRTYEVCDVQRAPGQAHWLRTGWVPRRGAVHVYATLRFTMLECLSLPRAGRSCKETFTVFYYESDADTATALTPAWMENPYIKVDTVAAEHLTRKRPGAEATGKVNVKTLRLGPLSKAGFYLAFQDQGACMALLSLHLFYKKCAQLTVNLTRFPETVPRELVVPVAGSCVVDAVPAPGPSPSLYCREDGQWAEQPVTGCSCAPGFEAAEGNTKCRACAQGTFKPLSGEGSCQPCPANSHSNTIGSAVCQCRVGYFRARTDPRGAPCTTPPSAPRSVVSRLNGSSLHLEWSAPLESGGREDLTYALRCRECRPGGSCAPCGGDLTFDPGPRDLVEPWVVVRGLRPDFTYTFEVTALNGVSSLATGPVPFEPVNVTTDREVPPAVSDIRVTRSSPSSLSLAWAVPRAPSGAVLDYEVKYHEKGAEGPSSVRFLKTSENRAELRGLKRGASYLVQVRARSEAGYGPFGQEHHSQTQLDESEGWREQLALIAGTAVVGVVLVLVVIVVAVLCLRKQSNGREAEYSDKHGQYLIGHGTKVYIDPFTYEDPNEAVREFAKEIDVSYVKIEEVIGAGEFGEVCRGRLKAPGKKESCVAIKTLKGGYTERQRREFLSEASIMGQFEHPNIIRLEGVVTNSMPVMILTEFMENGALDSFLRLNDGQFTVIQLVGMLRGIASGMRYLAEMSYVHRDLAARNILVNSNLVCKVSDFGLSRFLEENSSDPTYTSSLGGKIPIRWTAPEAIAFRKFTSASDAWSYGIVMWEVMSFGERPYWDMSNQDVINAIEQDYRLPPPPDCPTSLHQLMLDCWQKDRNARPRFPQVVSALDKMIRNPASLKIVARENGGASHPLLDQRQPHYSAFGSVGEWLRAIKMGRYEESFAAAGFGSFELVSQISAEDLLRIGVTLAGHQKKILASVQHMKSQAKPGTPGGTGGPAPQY

binding [1]	binding [2]	Substance
binds		Erythropoietin-producing human hepatocellular B4 (EPHB4) (from UniProt P54760 16-987) (receptor)
	binds	high-mobility group box 1 (HMGB1) (from UniProt P09429 1-215)

From paper PMC8425198
